Experimental findings from paper PMC10816715 are described below.

By UniProt entry, the sequences of proteins in these tests, tags left out.
UniProt P23475: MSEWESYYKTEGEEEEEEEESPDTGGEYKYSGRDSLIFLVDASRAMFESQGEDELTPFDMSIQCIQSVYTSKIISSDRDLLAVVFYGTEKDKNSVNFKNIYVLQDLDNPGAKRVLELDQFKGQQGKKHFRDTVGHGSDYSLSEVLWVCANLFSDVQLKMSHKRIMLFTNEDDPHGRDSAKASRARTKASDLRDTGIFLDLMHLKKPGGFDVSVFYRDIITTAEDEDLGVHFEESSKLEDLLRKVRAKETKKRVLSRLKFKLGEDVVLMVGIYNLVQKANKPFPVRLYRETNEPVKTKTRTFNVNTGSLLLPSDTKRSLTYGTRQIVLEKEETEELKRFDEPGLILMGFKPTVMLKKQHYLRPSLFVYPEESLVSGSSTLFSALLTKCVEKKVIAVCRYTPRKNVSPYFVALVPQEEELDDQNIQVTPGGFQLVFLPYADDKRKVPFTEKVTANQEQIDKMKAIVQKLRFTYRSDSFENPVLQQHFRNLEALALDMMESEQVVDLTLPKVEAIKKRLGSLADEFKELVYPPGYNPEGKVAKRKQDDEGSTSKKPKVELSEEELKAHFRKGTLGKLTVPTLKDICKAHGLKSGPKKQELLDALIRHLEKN

Results are given in words; binding and its absence hold for the method and conditions named. Binding seen in cells or lysates may run through a third protein.

For the assay, the target named is Ku70 (mouse (endogenous in colon tissue)) (UniProt P23475). As to the kind of experiment: co-IP; endogenous proteins from the colon tissue lysate of WT mice at day 14 of AOM-DSS treatment; IP with antibody to Ku70, pan-Ras, Rab5 or Rab7 (IgG control), Protein A/G PLUS-Agarose, immunoblot; lysis buffer 50 mM tris-HCl pH 7.5, 150 mM NaCl, 1% NP-40, 1% glycerol. (In general: Immunoblotting shows a protein as a band on a membrane.)

B1: GM-130 (protein, UniProt Q921M4 1-999)
chain: MWPPRFPPPRPGMSEETRQSKLAAAKKKLREYQQKNSPGVPAGAKKKKKIKNGHSPERPTASDCQSPENVPTDHIAPAPPTAATDTMFLGVTPSPDADLTQSHDAGNCSNLMEETKTFSSTESLRQLSQQLNGLVSESTSYINGEGLTSSNMKELENRYQELAVALDSSYVTNKQLSSTIEELKQQNQDTLDQLEKEKKDYQQKLAKEQGSLREQLQVHIQTIGILVSEKAELQTALAHTQQAARQKAGESEDLASRLQSSRQRVGELERTLSTVSTQQKQADRYNKDLTKERDALKLELYKNSKSNEDLRQQNSELEEKLRVLVAEKAAAQLGVEELQKKLEMSELLLQQFSSQSSAAGGNEQLQHAMEERAQLETHVSQLMESLKQLQVERDQYAENLKGESAMWQQRVQQMAEQVHTLKEEKEHRERQVQELETSLAALRSQMEEPPPPEPPAGPSEAEEQLQGEVEQLHKELERLTGQLRAQVQDNESLSHLNREQEGRLLELEREAQRWSEQAEERKQILESMQSDRTTISRALSQNRELKEQLAELQNGFVRLTNENMEITSALQSEQHVKKELARKLGELQERLGELKETVELKSQEAQGLQEQRDQCLSHLQQYAAAYQQHLAAYEQLTSEKEAIHKQLLLQTQLMDQLQHEEVQGKMAAELARQELQEAQERLKATSQENQQLQAQLSLLVLPGEGDVDQEEEDEEVPQSSLAIPEDLDSREAMVAFFNAAIARAEEEQARLRVQLKEQKARCRSLSHLAAPVQSKLEKEAVVPRNVDDSASEESNQALHVAMEKLQSRFLEVMQEKVELKERVEELEHCCIQLSGETDTIGEYIALYQNQRAVLKARHLEKEEYISRLAQDKEEMKVKLLELQELVLRLVNERNEWQGKFLAVSQNPGDVLTPVPTGSQEFGAADQQDDLREVSLADDIEPAQGEAGVPAPHENPTAQQIMQLLREIQNPRERPGLGSNPCIPFFYRADENDEVKIMVV
Regarding B1, the binding result is “no binding”.
